Measured values reported in publication PMC8085418.
No constants are given. Whether binding was seen depends on the method and setting. Binding seen in cells or lysates may run through a third protein. Some entries that bind do so weakly or less than the wild type.

Chains of the proteins cited; added tags and fusions are not shown.
UniProt Q92466: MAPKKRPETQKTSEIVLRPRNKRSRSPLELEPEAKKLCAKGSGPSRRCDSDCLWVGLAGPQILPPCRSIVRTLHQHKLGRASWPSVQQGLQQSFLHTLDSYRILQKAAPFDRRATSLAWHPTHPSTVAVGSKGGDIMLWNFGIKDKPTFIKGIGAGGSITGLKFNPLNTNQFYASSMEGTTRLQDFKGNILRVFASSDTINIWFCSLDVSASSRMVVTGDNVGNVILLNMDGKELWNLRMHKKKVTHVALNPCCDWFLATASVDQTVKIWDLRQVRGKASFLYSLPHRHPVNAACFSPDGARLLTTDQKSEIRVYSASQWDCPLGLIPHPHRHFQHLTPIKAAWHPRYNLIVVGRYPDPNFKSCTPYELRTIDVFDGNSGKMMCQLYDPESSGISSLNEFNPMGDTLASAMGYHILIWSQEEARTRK

Target: FLAG-DDB2 (UniProt Q92466)
Experiment: co-IP; MEFs transduced with the constructs; immunoprecipitation for the FLAG epitope, then immunoblot; extracts made with 0.1% NP-40, 10% glycerol in PBS

binding: binds
B1: USP44 (enzyme, UniProt Q8C2S0 1-711)
chain: MDRCKHVEQLQLAQGHSILDPQKWYCMVCNTTESIWACLSCSHVACGKYIQEHALKHFQESSHPVAFEVNDMYAFCYLCNDYVLNDNAAGDLKSLRSTLSTIKSKKYPCVVPSDSVLHPVDAQDRVYSLLDGTQSLPGNEDPTCAALWHRRRVLMGKAFRTWFEQSAIGRKGQEPTQERMVAKREAKRRQQQELEQQMKAELESTPPRKSLRLQGSSEEAATIEIVPVRAPPPPPASPAKDKAALPTSEDRTFKKVSDSLIKRRPMVTPGVTGLRNLGNTCYMNSVLQVLSHLLIFRQCFLKLDLNQWLAVAASDKARSYKHSAVTEAAAQQMNEGQEKEKGFVCSRHSGLSSGLSGGASKGRNMELIQPREPSSPYSSLCHELHILFQVMWSGEWALVSPFAMLHSVWRLIPAFRGYAQQDAQEFLCELLDKIQRELETTGTKLPALIPTSQRRLIEQVLNVVNNIFHGQFLSQVTCLACDNKSDTIESFWDLSLEFPERYQCSGKDAASQPCLVTDMLDKFTETEALEGKIYMCDHCNSKRRKFSSKSVVFTEAQKQLMICHLPQVLRLHLKRFRWSGRNNREKIGVHVVFEETLNMEPYCCRETLNALRPECFLYNLSAVVIHHGKGFGSGHYTAYCYNSEGGFWVHCNDSKLSMCTMEEVRKAQAYILFYTQRVTENGHSKLLPPELLSNSQHPSKETDASSNEVLS
